The results in this text go back to US11389453B2, “Compositions and methods for treating chemosensory dysfunction” (Cyrano Therapeutics, Inc., priority 2005, dated 2022).

Each structure is given as a SMILES string.

This series has as its system TRAIL. In words: TRAIL in nasal mucus of patients with hyposmia before and after treatment with theophylline. The format is in vivo, human. As to conditions: patients with hyposmia (5).

As for `Cn1c(=O)c2[nH]cnc2n(C)c1=O` [theophylline], the PROTEIN amounted to 1.29 mg/dL (theophylline 200 mg), 2.06 mg/dL (theophylline 400 mg) and 2.00 mg/dL (theophylline 600 mg).
